Measured values published in PMC9940367.
No constants are given. Whether binding was seen depends on the method and setting. In cells and extracts the contact can be indirect. Some results given as binding are weak or reduced against the parent protein; the word gives no strength.

By UniProt entry, the sequences of proteins in these tests, tags left out.
UniProt O00327: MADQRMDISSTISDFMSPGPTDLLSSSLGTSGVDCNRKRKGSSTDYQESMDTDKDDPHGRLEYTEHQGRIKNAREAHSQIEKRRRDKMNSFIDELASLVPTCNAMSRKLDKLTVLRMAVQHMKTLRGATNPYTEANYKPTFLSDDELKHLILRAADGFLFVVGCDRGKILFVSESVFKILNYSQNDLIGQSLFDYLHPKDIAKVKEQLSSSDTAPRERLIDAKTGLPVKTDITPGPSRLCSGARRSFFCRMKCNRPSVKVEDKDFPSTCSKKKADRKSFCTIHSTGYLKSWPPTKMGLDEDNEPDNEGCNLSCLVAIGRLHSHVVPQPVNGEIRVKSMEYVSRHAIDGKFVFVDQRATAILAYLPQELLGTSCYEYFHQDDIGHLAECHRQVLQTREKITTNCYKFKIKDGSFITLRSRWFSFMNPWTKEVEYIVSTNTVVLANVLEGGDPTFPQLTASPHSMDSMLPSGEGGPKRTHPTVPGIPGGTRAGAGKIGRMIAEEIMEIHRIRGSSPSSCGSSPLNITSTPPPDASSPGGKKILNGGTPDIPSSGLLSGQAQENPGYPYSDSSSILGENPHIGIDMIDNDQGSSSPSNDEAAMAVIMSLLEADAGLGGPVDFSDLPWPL

Legend:
[1] = biological target: p53 (endogenous, HBE cells) (human (endogenous in HBE)) (UniProt P04637); test: co-IP; endogenous proteins in HBE lysate; precipitated with anti-p53, anti-BMAL1 or anti-IgG antibody and protein A/G magnetic beads at 4 °C; blots with anti-p53 or anti-BMAL1
[2] = biological target: Flag-p53 (pcDNA3.1-p53-Flag) (UniProt P04637); test: co-IP; HEK293T cotransfected with Flag-p53 and HA-BMAL1 for 72 h; lysate precipitated with anti-Flag, anti-HA or anti-IgG antibody and protein A/G magnetic beads at 4 °C; blots with anti-HA or anti-Flag

Row | Substance | binding [1] | binding [2]
1 | BMAL1 (endogenous, HBE cells) (from UniProt O00327 1-626) | binds | 
2 | HA-BMAL1 (pcDNA3.1-BMAL1-HA) (from UniProt O00327 1-626) |  | binds
